Results from publication PMC11909255.
Results are given in words; binding and its absence hold for the method and conditions named. In cells and extracts the contact can be indirect. Some binding calls cover weakened binding; strength is not graded here.

Protein sequences, listed by entry. Tags and fused reporters are not part of them.
UniProt Q99MQ3: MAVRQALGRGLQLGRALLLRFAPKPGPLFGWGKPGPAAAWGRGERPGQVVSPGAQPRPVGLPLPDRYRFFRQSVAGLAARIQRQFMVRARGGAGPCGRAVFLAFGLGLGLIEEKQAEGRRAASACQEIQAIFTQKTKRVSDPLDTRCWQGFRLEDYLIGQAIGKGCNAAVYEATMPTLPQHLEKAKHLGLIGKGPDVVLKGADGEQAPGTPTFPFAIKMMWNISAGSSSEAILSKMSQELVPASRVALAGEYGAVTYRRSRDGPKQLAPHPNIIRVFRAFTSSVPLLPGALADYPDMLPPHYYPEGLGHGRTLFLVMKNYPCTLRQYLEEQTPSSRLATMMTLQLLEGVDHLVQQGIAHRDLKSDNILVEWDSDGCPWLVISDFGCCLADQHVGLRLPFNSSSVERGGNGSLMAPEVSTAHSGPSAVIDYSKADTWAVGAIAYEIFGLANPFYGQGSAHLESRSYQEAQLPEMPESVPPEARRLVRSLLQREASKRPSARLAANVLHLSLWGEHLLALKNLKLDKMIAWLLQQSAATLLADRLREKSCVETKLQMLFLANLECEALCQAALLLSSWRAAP
UniProt P52480: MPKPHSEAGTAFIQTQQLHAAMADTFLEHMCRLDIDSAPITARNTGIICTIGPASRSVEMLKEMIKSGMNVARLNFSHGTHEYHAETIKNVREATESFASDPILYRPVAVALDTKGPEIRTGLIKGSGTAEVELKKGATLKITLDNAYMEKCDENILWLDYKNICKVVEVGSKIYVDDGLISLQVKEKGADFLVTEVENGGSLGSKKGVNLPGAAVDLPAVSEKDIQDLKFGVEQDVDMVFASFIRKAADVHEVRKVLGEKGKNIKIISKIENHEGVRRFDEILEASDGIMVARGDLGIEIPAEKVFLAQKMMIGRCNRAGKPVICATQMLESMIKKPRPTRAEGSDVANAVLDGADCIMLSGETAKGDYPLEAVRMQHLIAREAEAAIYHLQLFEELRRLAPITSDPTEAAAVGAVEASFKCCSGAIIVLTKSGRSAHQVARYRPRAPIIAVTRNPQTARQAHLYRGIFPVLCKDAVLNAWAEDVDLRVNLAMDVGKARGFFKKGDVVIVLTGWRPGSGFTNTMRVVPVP

Target: PTEN-induced putative kinase 1 (PINK1) (mouse (endogenous in murine chondrocytes)) (UniProt Q99MQ3)
Assay: co-IP; endogenous proteins in chondrocyte lysate; 1 µg purified antibody overnight at 4 °C, Protein A-agarose, six washes with 1X IP buffer, Western blot; cells wild-type, Pink1 knockout or PINK1-overexpressing; which protein was precipitated is not told

- binding: binds
Substance: Pyruvate kinase M2 (PKM2) (from UniProt P52480 1-531) (enzyme)
